Experimental data published in the supplement of paper PMC8007513.
The other results are listed elsewhere or left out. Repeats are few or missing, and single values can be far off.

What follows are molecules tested on Saccharomyces cerevisiae BY4743 (assay: growth (OD600) with compound + IPBC relative to untreated control; higher = less growth inhibition). Details: compound concentration: 133 uM; IPBC concentration: 0.5 ug/ml; 20 h.
Experimental: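 NMCCC compounds (133 uM) combined with IPBC (0.5 ug/ml) against Saccharomyces cerevisiae BY4743 in YPD, 96-well plates. Growth was read as OD600 at 20 h and expressed as % of the untreated control. Single pass.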
For `CCOC(=O)C(CC)N1\C=N/C2=C(C=N[N]2C3=CC=C(Cl)C=C3)C1=O` (stereo unspecified) + CCCCNC(=O)OCC#CI [3-iodo-2-propynyl butylcarbamate (IPBC)], the growth was 100%.
With `COC(=O)C(O)(c1cn(C)c2ccccc12)C(F)(F)F` (stereo unspecified) + CCCCNC(=O)OCC#CI [3-iodo-2-propynyl butylcarbamate (IPBC)] the growth was 110%.
In the case of `CCOC(=O)CNC(=O)c1sc2nc(C)cc(C)c2c1NC(=O)Cc1ccccc1` + CCCCNC(=O)OCC#CI [3-iodo-2-propynyl butylcarbamate (IPBC)], the growth is reported as 104%.
Work on `CCn1nnnc1SCc1cn2cc(Cl)ccc2n1` + CCCCNC(=O)OCC#CI [3-iodo-2-propynyl butylcarbamate (IPBC)] yielded a growth of 112%.
For `COc1cc2c(cc1OC)C1CC(=O)C(CC(C)C)CN1CC2` (stereo unspecified) + CCCCNC(=O)OCC#CI [3-iodo-2-propynyl butylcarbamate (IPBC)], the growth was 98.7%.
`Cl\C1=C(\CCCC1)C(=O)NC2=CC=C(C=C2)N3CCOCC3` + CCCCNC(=O)OCC#CI [3-iodo-2-propynyl butylcarbamate (IPBC)] was tested, and the growth was 102%.
`CNc1snc(C)c1C(=O)OCc1coc(-c2cccs2)n1` + CCCCNC(=O)OCC#CI [3-iodo-2-propynyl butylcarbamate (IPBC)] was tested, and the growth was 105%.
`CC(C)(C)c1csc(NC(=O)c2csc(-c3ccsc3)n2)n1` + CCCCNC(=O)OCC#CI [3-iodo-2-propynyl butylcarbamate (IPBC)] was tested, and the growth was 90.5%.
For `Cc1nn(CC(=O)Nc2ccccc2C(F)(F)F)c2ccccc12` + CCCCNC(=O)OCC#CI [3-iodo-2-propynyl butylcarbamate (IPBC)], the growth was 105%.
In the case of `CCOC(=O)C1Sc2nnc(C(F)(F)F)n2NC1c1ccccc1` (stereo unspecified) + CCCCNC(=O)OCC#CI [3-iodo-2-propynyl butylcarbamate (IPBC)], the growth is reported as 77.3%.
Molecule `COC(=O)c1ccc(C(=O)N2CCN(C(=O)c3ccc(OC)cc3)CC2)nc1` + CCCCNC(=O)OCC#CI [3-iodo-2-propynyl butylcarbamate (IPBC)] has a growth of 109%.
Molecule `CC1=CC=C(NC(=O)\C2=C\CN(CC2)CC3=CC=C(F)C=C3)C=C1F` + CCCCNC(=O)OCC#CI [3-iodo-2-propynyl butylcarbamate (IPBC)] has a growth of 104%.
`CCOC(=O)c1c(C)oc2ncnc(NCc3ccccc3Cl)c12` + CCCCNC(=O)OCC#CI [3-iodo-2-propynyl butylcarbamate (IPBC)] showed a growth of 103%.
`CCN(CC)[S](=O)(=O)C1=CC=C(C=C1)C(=O)N\C2=C(/C(C)C)N(C)N(C2=O)C3=CC=CC=C3` + CCCCNC(=O)OCC#CI [3-iodo-2-propynyl butylcarbamate (IPBC)] was tested, and the growth was 104%.
Work on `COC(=O)CCCC(=O)NC(c1ccc(Cl)cc1)c1nnc(-c2ccccc2)o1` (stereo unspecified) + CCCCNC(=O)OCC#CI [3-iodo-2-propynyl butylcarbamate (IPBC)] yielded a growth of 94.9%.
`CCOC(=O)CNC(=O)C1CCCc2c1[nH]c1ccc(Cl)cc21` (stereo unspecified) + CCCCNC(=O)OCC#CI [3-iodo-2-propynyl butylcarbamate (IPBC)] was tested, and the growth was 97.4%.
`Cc1cccc(NC(=O)CN(C)C(=O)c2cnn(-c3ccccc3F)c2C)c1C` + CCCCNC(=O)OCC#CI [3-iodo-2-propynyl butylcarbamate (IPBC)] gave a growth of 99%.
`Cc1cc(C)c(S(=O)(=O)NCC(=O)Nc2ccc(C(N)=O)cc2)c(C)c1` + CCCCNC(=O)OCC#CI [3-iodo-2-propynyl butylcarbamate (IPBC)] showed a growth of 86.3%.
With `CC1(CC[S](=O)(=O)C1)NC(=O)C/2=N/N(CC3=CC=CC=C3)C(=O)/C=C2` (stereo unspecified) + CCCCNC(=O)OCC#CI [3-iodo-2-propynyl butylcarbamate (IPBC)] the growth was 92.9%.
`CN(C)c1ccc(CN(Cc2ccco2)C(=O)COc2ccc(F)cc2)cc1` + CCCCNC(=O)OCC#CI [3-iodo-2-propynyl butylcarbamate (IPBC)] was tested, and the growth was 81.6%.
Molecule `Cc1cc(S(=O)(=O)N(C)C)cc(NC(=O)c2c(-c3c(F)cccc3Cl)noc2C)c1C` + CCCCNC(=O)OCC#CI [3-iodo-2-propynyl butylcarbamate (IPBC)] has a growth of 112%.
